This note sets out measurements from PubChem BioAssay AID336 (DTP/NCI, 2004).

The list is a part of this screen's results and no random one: it covers a few groups of compounds. Other doses and runs of a compound may be missing. T/C is the treated group as % of the vehicle group. Where survival is the endpoint, this PubChem deposit counts one and a half times the control or more as active, and values a quarter to a half above the control carry no call in these data; other NCI protocols may use other cut-offs. Some T/C values are marked as having no survivor count here; that says nothing about deaths at the dose. Schedules are NCI's codes, taken here to give the interval after Q, in days (D) or hours (H), and the number of doses after X. Brackets with × stand for listed records that agree. Some doses were run more than once; the values are given in rising order.

The subject of the assay is BDF1 mice, P388/VCR leukemia ip, median survival T/C. Kind of assay: NCI In Vivo Anticancer Drug Screen. Data for tumor model P388 Leukemia resistant to Vincristine; NSC 67574 (intraperitoneal) in B6D2F1 (BDF1) mice. The note with it: T/C endpoint: median survival time, schedule: Q01DX010 (ip), vehicle: saline, higher T/C = longer survival. The procedure:
The antitumor activity of compounds was measured in mice bearing transplantable tumors. Survival or tumor size were measured and the results are expressed as the measurement made in the treated group (T) divided by the measurement made in the vehicle treated control group (C). The tumor model used in this assay is P388 Leukemia resistant to Vincristine; NSC 67574 (intraperitoneal) in B6D2F1 (BDF1) mice

With `NC1CCCCC1.NP(=O)(O)N(CCCl)CCCl`, the T/C (dose: 15.6 mg/kg/injection) is 233 [survivor count not shown] and 237 % of control [survivor count not shown]; the T/C (dose: 31.3 mg/kg/injection) is 229 [survivor count not shown], 250 [survivor count not shown], 287 % of control [survivor count not shown]; the T/C (dose: 62.5 mg/kg/injection) was 91 [survivor count not shown] and 241 % of control [survivor count not shown].
With `ClCCNCCCl`, the T/C is 127 [survivor count not shown] and 131 % of control [survivor count not shown] (dose: 18.8 mg/kg/injection); 177 % of control [survivor count not shown] (2×) (dose: 37.5 mg/kg/injection); 95 % of control [survivor count not shown] (dose: 75.0 mg/kg/injection).
Turning to `CC(C(=O)O)N(CCCl)CCCl` (stereo not drawn), the T/C reads like this: (dose: 0.25 mg/kg/injection) 133 % of control [survivor count not shown]; (dose: 0.5 mg/kg/injection) 120 [survivor count not shown] and 160 % of control [survivor count not shown]; (dose: 1.0 mg/kg/injection) 130 [survivor count not shown] and 145 % of control [survivor count not shown]; (dose: 2.0 mg/kg/injection) 191 % of control [survivor count not shown] (2×).
Regarding `ClCCN(CCCl)Cc1nc2ccccc2[nH]1`, the T/C runs as follows: (dose: 1.25 mg/kg/injection) 130 % of control [survivor count not shown]; (dose: 2.5 mg/kg/injection) 169 % of control [survivor count not shown]; (dose: 5.0 mg/kg/injection) 100 % of control [survivor count not shown]; (dose: 10.0 mg/kg/injection) 92 % of control [survivor count not shown].
As for `O=C(O)CN(CCCl)CCCl`, the T/C (dose: 0.31 mg/kg/injection) was 141 % of control [survivor count not shown]; the T/C (dose: 0.63 mg/kg/injection) was 133 [survivor count not shown] and 165 % of control [survivor count not shown]; the T/C (dose: 1.25 mg/kg/injection) is 158 [survivor count not shown] and 165 % of control [survivor count not shown]; the T/C (dose: 2.5 mg/kg/injection) was 134 [survivor count not shown] and 183 % of control [survivor count not shown].
With `NC(Cc1ccccc1N(CCCl)CCCl)C(=O)O` (stereo not drawn), the T/C was 173 % of control [survivor count not shown] (dose: 0.25 mg/kg/injection), 210 % of control [survivor count not shown] (dose: 0.5 mg/kg/injection) and 93 % of control [survivor count not shown] (dose: 1.0 mg/kg/injection).
Regarding `NC(Cc1cccc(N(CCCl)CCCl)c1)C(=O)O` (stereo not drawn), the T/C reads like this: (dose: 0.63 mg/kg/injection) 211 % of control [survivor count not shown]; (dose: 1.25 mg/kg/injection) 230 % of control [survivor count not shown].
